Experiments:
[1] = test system: Hsp90 complexes in Mia-PaCa-2 cell extract; assay: Nano-LC-MS/MS of PU-beads pull-downs; type: binding, human; conditions: protein identified in PU-beads pull-down of Mia-Paca 2 extract; QSTAR-Elite QTof MS
Method: (§1) Lysates prepared as mentioned above were first pre-cleaned by incubation with control beads overnight at 4° C. […] Beads were washed with lysis buffer, proteins eluted by boiling in 2% SDS, separated on a denaturing gel and Coomassie stained according to manufacturer's procedure (Biorad). […] Analyses of the batch purified pools were done using a QSTAR-Elite hybrid quadrupole time-of-flight mass spectrometer (QTof MS) (AB/MDS Sciex), equipped with a nano spray ion source. Peptide mixtures (in 20 μL) are loaded onto a trapping guard column (0.3×5-mm PepMap C18 100 cartridge from LC Packings) using an Eksigent nano MDLC system (Eksigent Technologies, Inc) at a flow rate of 20 μL/min. […] Electrospray ionization (ESI) needle voltage was set at about 1800 V. The mass analyzer is operated in automatic, data-dependent MS/MS acquisition mode, with the threshold set to 10 counts per second of doubly or triply charged precursor ions selected for fragmentation scans. Survey scans of 0.25 sec are recorded from 400 to 1800 amu; up to 3 MS/MS scans are then collected sequentially for the selected precursor ions, recording from 100 to 1800 amu. The collision energy is automatically adjusted in accordance with the m/z value of the precursor ions selected for MS/MS. Selected precursor ions are excluded from repeated selection for 60 sec after the end of the corresponding fragmentation duty cycle. […] One missed tryptic cleavage site was allowed, precursor ion mass tolerance=0.4 Da fragment ion mass tolerance=0.4 Da, protein modifications were allowed for Met-oxide, Cys-acrylamide and N-terminal acetylation. MudPit scoring was typically applied with ‘require bold red’ activated, and using significance threshold score p<0.05. Unique peptide counts (or ‘spectral counts’) and percent sequence coverages for all identified proteins were exported to Scaffold Proteome Software (version 2_06_01, www.proteomesoftware.com) for further bioinformatic analysis (Table 5a). Using output from Mascot, Scaffold validates, organizes, and interprets mass spectrometry data, allowing more easily to manage large amounts of data, to compare samples, and to search for protein modifications.

[2] = test system: Hsp90 complexes in K562 cell extract; assay: Nano-LC-MS/MS of PU-beads pull-downs; type: binding; conditions: protein identified in PU-beads pull-down of K562 extract, QSTAR-Elite QTof MS
Method: Protein cargo isolated from cell lysate with PU-beads or control-beads was subjected to proteomic analysis by nano liquid chromatography coupled to tandem mass spectrometry (nano LC-MS/MS). Initial protein identification was performed using the Mascot search engine, and was further evaluated using Scaffold Proteome Software (Tables 5a-d).
as §1

Molecule | Number of Assigned Spectra, Mia-Paca 2 [1] | Number of Assigned Spectra, K562 Prep 1 [2] | Number of Assigned Spectra, K562 Prep 2 [2]
CAPN1 (protein) SEEIITPVYCTGVSAQVQKQRARELGLGRHENAIKYLGQDYEQLRVRCLQSGTLFRDEAFPPVPQSLGYKDLGPNSSKTYGIKWKRPTELLSNPQFIVDGATRTDICQGALGDCWLLAAIASLTLNDTLLHRVVPHGQSFQNGYAGIFHFQLWQFGEWVDVVVDDLLPIKDGKLVFVHSAEGNEFWSALLEKAYAKVNGSYEALSGGSTSEGFEDFTGGVTEWYELRKAPSDLYQIILKALERGSLLGCSIDISSVLDMEAITFKKLVKGHAYSVTGAKQVNYRGQVVSLIRMRNPWGEVEWTGAWSDSSSEWNNVDPYERDQLRVKMEDGEFWMSFRDFMREFTRLEICNLTPDALKSRTIRKWNTTLYEGTWRRGSTAGGCRNYPATFWVNPQFKIRLDETDDPDDYGDRESGCSFVLALMQKHRRRERRFGRDMETIGFAVYEVPPELVGQPAVHLKRDFFLANASRARSEQFINLREVSTRFRLPPGEYVVVPSTFEPNKEGDFVLRFFSEKSAGTVELDDQIQANLPDEQVLSEEEIDENFKALFRQLAGEDMEISVKELRTILNRIISKHKDLRTKGFSLESCRSMVNLMDRDGNGKLGLVEFNILWNRIRNYLSIFRKFDLDKSGSMSAYEMRMAIESAGFKLNKKLYELIITRYSEPDLAVDFDNFVCCLVRLETMFRFFKTLDTDLDGVVTFDLFKWLQLTMFA | 0 | 10 | 11
AKAP8L (protein, UniProt Q9ULX6 1-646, looked up) A-kinase anchor protein 8-like: MSYTGFVQGSETTLQSTYSDTSAQPTCDYGYGTWNSGTNRGYEGYGYGYGYGQDNTTNYGYGMATSHSWEMPSSDTNANTSASGSASADSVLSRINQRLDMVPHLETDMMQGGVYGSGGERYDSYESCDSRAVLSERDLYRSGYDYSELDPEMEMAYEGQYDAYRDQFRMRGNDTFGPRAQGWARDARSGRPMASGYGRMWEDPMGARGQCMSGASRLPSLFSQNIIPEYGMFQGMRGGGAFPGGSRFGFGFGNGMKQMRRTWKTWTTADFRTKKKKRKQGGSPDEPDSKATRTDCSDNSDSDNDEGTEGEATEGLEGTEAVEKGSRVDGEDEEGKEDGREEGKEDPEKGALTTQDENGQTKRKLQAGKKSQDKQKKRQRDRMVERIQFVCSLCKYRTFYEDEMASHLDSKFHKEHFKYVGTKLPKQTADFLQEYVTNKTKKTEELRKTVEDLDGLIQQIYRDQDLTQEIAMEHFVKKVEAAHCAACDLFIPMQFGIIQKHLKTMDHNRNRRLMMEQSKKSSLMVARSILNNKLISKKLERYLKGENPFTDSPEEEKEQEEAEGGALDEGAQGEAAGISEGAEGVPAQPPVPPEPAPGAVSPPPPPPPEEEEEGAVPLLGGALQRQIRGIPGLDVEDDEEGGGGAP | 2 | 3 | 3
MAP2K3; MEK3 (protein, UniProt P46734 1-347, looked up) Dual specificity …: MESPASSQPASMPQSKGKSKRKKDLRISCMSKPPAPNPTPPRNLDSRTFITIGDRNFEVEADDLVTISELGRGAYGVVEKVRHAQSGTIMAVKRIRATVNSQEQKRLLMDLDINMRTVDCFYTVTFYGALFREGDVWICMELMDTSLDKFYRKVLDKNMTIPEDILGEIAVSIVRALEHLHSKLSVIHRDVKPSNVLINKEGHVKMCDFGISGYLVDSVAKTMDAGCKPYMAPERINPELNQKGYNVKSDVWSLGITMIEMAILRFPYESWGTPFQQLKQVVEEPSPQLPADRFSPEFVDFTAQCLRKNPAERMSYLELMEHPFFTLHKTKKTDIAAFVKEILGEDS | 2 | 0 | 0
TAB1 (protein) MAAQRRSLLQSEQQPSWTDDLPLCHLSGVGSASNRSYSADGKGTESHPPEDSWLKFRSENNCFLYGVFNGYDGNRVTNFVAQRLSAELLLGQLNAEHAEADVRRVLLQAFDVVERSFLESIDDALAEKASLQSQLPEGVPQHQLPPQYQKILERLKTLEREISGGAMAVVAVLLNNKLYVANVGTNRALLCKSTVDGLQVTQLNVDHTTENEDELFRLSQLGLDAGKIKQVGIICGQESTRRIGDYKVKYGYTDIDLLSAAKSKPIIAEPEIHGAQPLDGVTGFLVLMSEGLYKALEAAHGPGQANQEIAAMIDTEFAKQTSLDAVAQAVVDRVKRIHSDTFASGGERARFCPRHEDMTLLVRNFGYPLGEMSQPTPSPAPAAGGRVYPVSVPYSSAQSTSKTSVTLSLVMPSQGQMVNGAHSASTLDEATPTLTNQSPTLTLQSTNTHTQSSSSSSDGGLFRSRPAHSLPPGEDGRVEPYVDFAEFYRLWSVDHGEQSVVTAP | 2 | 1 | 3
MYCBP (protein, UniProt Q99417 2-103, looked up) c-Myc-binding protein: AHYKAADSKREQFRRYLEKSGVLDTLTKVLVALYEEPEKPNSALDFLKHHLGAATPENPEIELLRLELAEMKEKYEAIVEENKKLKAKLAQYEPPQEEKRAE | 3 | 2 | 0
CAPNS1 (protein, UniProt P04632 1-268, looked up) Calpain small subunit 1: MFLVNSFLKGGGGGGGGGGGLGGGLGNVLGGLISGAGGGGGGGGGGGGGGGGGGGGTAMRILGGVISAISEAAAQYNPEPPPPRTHYSNIEANESEEVRQFRRLFAQLAGDDMEVSATELMNILNKVVTRHPDLKTDGFGIDTCRSMVAVMDSDTTGKLGFEEFKYLWNNIKRWQAIYKQFDTDRSGTICSSELPGAFEAAGFHLNEHLYNMIIRRYSDESGNMDFDNFISCLVRLDAMFRAFKSLDKDGTGQIQVNIQEWLQLTMYS | 3 | 0 | 0
PTK2; FAK1 (protein, UniProt Q05397 2-1052, looked up) Focal adhesion kinase 1: AAAYLDPNLNHTPNSSTKTHLGTGMERSPGAMERVLKVFHYFESNSEPTTWASIIRHGDATDVRGIIQKIVDSHKVKHVACYGFRLSHLRSEEVHWLHVDMGVSSVREKYELAHPPEEWKYELRIRYLPKGFLNQFTEDKPTLNFFYQQVKSDYMLEIADQVDQEIALKLGCLEIRRSYWEMRGNALEKKSNYEVLEKDVGLKRFFPKSLLDSVKAKTLRKLIQQTFRQFANLNREESILKFFEILSPVYRFDKECFKCALGSSWIISVELAIGPEEGISYLTDKGCNPTHLADFTQVQTIQYSNSEDKDRKGMLQLKIAGAPEPLTVTAPSLTIAENMADLIDGYCRLVNGTSQSFIIRPQKEGERALPSIPKLANSEKQGMRTHAVSVSETDDYAEIIDEEDTYTMPSTRDYEIQRERIELGRCIGEGQFGDVHQGIYMSPENPALAVAIKTCKNCTSDSVREKFLQEALTMRQFDHPHIVKLIGVITENPVWIIMELCTLGELRSFLQVRKYSLDLASLILYAYQLSTALAYLESKRFVHRDIAARNVLVSSNDCVKLGDFGLSRYMEDSTYYKASKGKLPIKWMAPESINFRRFTSASDVWMFGVCMWEILMHGVKPFQGVKNNDVIGRIENGERLPMPPNCPPTLYSLMTKCWAYDPSRRPRFTELKAQLSTILEEEKAQQEERMRMESRRQATVSWDSGGSDEAPPKPSRPGYPSPRSSEGFYPSPQHMVQTNHYQVSGYPGSHGITAMAGSIYPGQASLLDQTDSWNHRPQEIAMWQPNVEDSTVLDLRGIGQVLPTHLMEERLIRQQQEMEEDQRWLEKEERFLKPDVRLSRGSIDREDGSLQGPIGNQHIYQPVGKPDPAAPPKKPPRPGAPGHLGSLASLSSPADSYNEGVKLQPQEISPPPTANLDRSNDKVYENVTGLVKAVIEMSSKIQPAPPEEYVPMVKEVGLALRTLLATVDETIPLLPASTHREIEMAQKLLNSDLGELINKMKLAQQYVMTSLQQEYKKQMLTAAHALAVDAKNLLDVIDQARLKMLGQTRPH | 4 | 4 | 5
